From the supplement of paper PMC6078165
± gives the standard deviation of the averaged measurements. The reference is the same well before dosing, and untreated signal decays as well.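 Labels refer to human fibroblasts, largely primary: uterine (C12385, HUF), lung (H6013), bone (Hs27A), adrenal (HADF), skin (WS1), plus mammary HMF and breast cancer-associated Hs343T. Cancer lines are basal-like or mesenchymal-like triple-negative breast cancer. The paper counts as hits responses shifting over 3x the replicate standard deviation. The tissue of the other fibroblasts is not given here.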

Test system: MDAMB231
Experiment: relative JC-1 red fluorescence (viability) vs pre-drug, coculture with fibroblast (fraction); higher = more viable cancer cells
Experimental: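 JC-1 labelled TNBC cells cocultured 1:1 (1,500 cells each) with CellTrace Violet stained primary or stromal fibroblasts in 384-well plates in FluoroBrite medium, treated with one of 42 anticancer drugs at 0.1, 1, 10 or 100 uM. JC-1 red fluorescence (mitochondrial integrity in cancer cells only) was read by plate reader every 8 h for 72 h. Values are normalised to each well's pre-drug value. The stock of one drug was tenfold lower, so its dose labels may be too high.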

Nc1ccn([C@@H]2O[C@H](CO)[C@@H](O)C2(F)F)c(=O)n1 [Gemcitabine]
relative JC-1 red fluorescence
Settings | 8 h | 16 h | 24 h | 32 h | 40 h | 48 h | 56 h | 64 h | 72 h
0.1 µM, coculture fibroblast: C12385 | 0.773 ± 0.011 | 0.71 ± 0.016 | 0.635 ± 0.051 | 0.598 ± 0.014 | 0.534 ± 0.01 | 0.51 ± 0.018 | 0.47 ± 0.024 | 0.468 ± 0.039 | 0.457 ± 0.04
0.1 µM, coculture fibroblast: H6013 | 0.905 ± 0.022 | 0.811 ± 0.0096 | 0.779 ± 0.0078 | 0.7679 ± 0.0029 | 0.708 ± 0.02 | 0.678 ± 0.014 | 0.6531 ± 0.0056 | 0.637 ± 0.0075 | 0.598 ± 0.012
0.1 µM, coculture fibroblast: H6019 | 0.7568 ± 0.00071 | 0.652 ± 0.0088 | 0.594 ± 0.0086 | 0.5484 ± 0.003 | 0.4965 ± 0.0036 | 0.485 ± 0.0068 | 0.442 ± 0.0071 | 0.431 ± 0.0099 | 0.3973 ± 0.0024
0.1 µM, coculture fibroblast: H6076 | 0.878 ± 0.035 | 0.784 ± 0.02 | 0.7312 ± 0.0055 | 0.7192 ± 0.0031 | 0.685 ± 0.015 | 0.653 ± 0.013 | 0.64 ± 0.017 | 0.63 ± 0.02 | 0.634 ± 0.03
0.1 µM, coculture fibroblast: H6231 | 0.879 ± 0.045 | 0.781 ± 0.065 | 0.712 ± 0.021 | 0.667 ± 0.024 | 0.621 ± 0.011 | 0.5913 ± 0.00092 | 0.5533 ± 0.0012 | 0.549 ± 0.0072 | 0.533 ± 0.023
0.1 µM, coculture fibroblast: HADF | 0.8948 ± 0.0067 | 0.839 ± 0.0098 | 0.781 ± 0.0097 | 0.753 ± 0.018 | 0.708 ± 0.035 | 0.654 ± 0.037 | 0.634 ± 0.054 | 0.618 ± 0.039 | 0.564 ± 0.03
0.1 µM, coculture fibroblast: HCFa | 0.876 ± 0.016 | 0.796 ± 0.015 | 0.7549 ± 0.0013 | 0.73022 ± 0.00012 | 0.687 ± 0.0082 | 0.648 ± 0.0077 | 0.603 ± 0.018 | 0.564 ± 0.015 | 0.511 ± 0.019
0.1 µM, coculture fibroblast: HCPF | 0.9522 ± 0.0055 | 0.844 ± 0.0095 | 0.739 ± 0.0084 | 0.698 ± 0.0077 | 0.6475 ± 0.0041 | 0.596 ± 0.0081 | 0.557 ± 0.0071 | 0.5192 ± 0.0013 | 0.4761 ± 0.0011
0.1 µM, coculture fibroblast: HHSteC | 0.9087 ± 0.0048 | 0.85 ± 0.018 | 0.801 ± 0.021 | 0.746 ± 0.023 | 0.7 ± 0.039 | 0.671 ± 0.043 | 0.622 ± 0.024 | 0.587 ± 0.035 | 0.531 ± 0.037
0.1 µM, coculture fibroblast: HMF | 0.8961 ± 0.0081 | 0.794 ± 0.01 | 0.738 ± 0.013 | 0.696 ± 0.0089 | 0.655 ± 0.015 | 0.621 ± 0.015 | 0.59 ± 0.023 | 0.568 ± 0.017 | 0.541 ± 0.017
0.1 µM, coculture fibroblast: HPFa | 0.9174 ± 0.0065 | 0.86 ± 0.013 | 0.803 ± 0.017 | 0.752 ± 0.012 | 0.719 ± 0.015 | 0.681 ± 0.015 | 0.627 ± 0.0083 | 0.5978 ± 0.0032 | 0.546 ± 0.007
0.1 µM, coculture fibroblast: HUF | 0.869 ± 0.069 | 0.762 ± 0.1 | 0.773 ± 0.12 | 0.667 ± 0.14 | 0.596 ± 0.15 | 0.578 ± 0.16 | 0.537 ± 0.16 | 0.538 ± 0.17 | 0.516 ± 0.16
0.1 µM, coculture fibroblast: Hs5 | 0.873 ± 0.051 | 0.788 ± 0.011 | 0.763 ± 0.011 | 0.733 ± 0.012 | 0.71 ± 0.031 | 0.667 ± 0.047 | 0.649 ± 0.066 | 0.635 ± 0.082 | 0.624 ± 0.095
0.1 µM, coculture fibroblast: Hs27A | 0.8738 ± 0.0063 | 0.8116 ± 0.0073 | 0.763 ± 0.017 | 0.73 ± 0.017 | 0.681 ± 0.047 | 0.612 ± 0.05 | 0.618 ± 0.052 | 0.596 ± 0.054 | 0.553 ± 0.061
0.1 µM, coculture fibroblast: Hs343T | 0.942 ± 0.013 | 0.813 ± 0.034 | 0.746 ± 0.026 | 0.707 ± 0.022 | 0.655 ± 0.014 | 0.603 ± 0.025 | 0.543 ± 0.022 | 0.509 ± 0.0099 | 0.469 ± 0.011
0.1 µM, coculture fibroblast: WS1 | 0.7611 ± 0.0034 | 0.654 ± 0.012 | 0.649 ± 0.023 | 0.577 ± 0.041 | 0.537 ± 0.054 | 0.522 ± 0.06 | 0.485 ± 0.056 | 0.501 ± 0.062 | 0.501 ± 0.062
1 µM, coculture fibroblast: C12385 | 0.749 ± 0.027 | 0.693 ± 0.021 | 0.645 ± 0.031 | 0.627 ± 0.0083 | 0.57394 ± 0.00047 | 0.547 ± 0.0084 | 0.508 ± 0.013 | 0.506 ± 0.011 | 0.502 ± 0.0071
1 µM, coculture fibroblast: H6013 | 0.889 ± 0.043 | 0.808 ± 0.016 | 0.766 ± 0.014 | 0.751 ± 0.013 | 0.703 ± 0.014 | 0.6824 ± 0.0022 | 0.643 ± 0.019 | 0.62 ± 0.026 | 0.574 ± 0.011
1 µM, coculture fibroblast: H6019 | 0.7 ± 0.032 | 0.629 ± 0.031 | 0.602 ± 0.0093 | 0.539 ± 0.02 | 0.48 ± 0.035 | 0.455 ± 0.044 | 0.414 ± 0.045 | 0.402 ± 0.04 | 0.364 ± 0.036
1 µM, coculture fibroblast: H6076 | 0.877 ± 0.013 | 0.761 ± 0.013 | 0.729 ± 0.051 | 0.709 ± 0.079 | 0.662 ± 0.095 | 0.637 ± 0.1 | 0.619 ± 0.12 | 0.607 ± 0.14 | 0.617 ± 0.17
1 µM, coculture fibroblast: H6231 | 0.8754 ± 0.0055 | 0.772 ± 0.012 | 0.707 ± 0.017 | 0.675 ± 0.032 | 0.618 ± 0.038 | 0.589 ± 0.045 | 0.555 ± 0.068 | 0.551 ± 0.081 | 0.547 ± 0.097
1 µM, coculture fibroblast: HADF | 0.858 ± 0.046 | 0.785 ± 0.024 | 0.755 ± 0.014 | 0.718 ± 0.013 | 0.6852 ± 0.0031 | 0.6555 ± 0.001 | 0.6234 ± 0.0061 | 0.5938 ± 0.0053 | 0.5351 ± 0.004
1 µM, coculture fibroblast: HCFa | 0.8878 ± 0.003 | 0.817 ± 0.0087 | 0.7701 ± 0.0038 | 0.7376 ± 0.007 | 0.669 ± 0.016 | 0.626 ± 0.027 | 0.585 ± 0.028 | 0.546 ± 0.045 | 0.489 ± 0.031
1 µM, coculture fibroblast: HCPF | 0.922 ± 0.027 | 0.815 ± 0.016 | 0.724 ± 0.028 | 0.697 ± 0.035 | 0.63 ± 0.037 | 0.585 ± 0.039 | 0.53 ± 0.039 | 0.479 ± 0.026 | 0.432 ± 0.023
1 µM, coculture fibroblast: HHSteC | 0.889 ± 0.031 | 0.825 ± 0.026 | 0.786 ± 0.038 | 0.742 ± 0.04 | 0.698 ± 0.049 | 0.665 ± 0.043 | 0.623 ± 0.051 | 0.598 ± 0.046 | 0.544 ± 0.033
1 µM, coculture fibroblast: HMF | 0.869 ± 0.02 | 0.754 ± 0.012 | 0.7211 ± 0.002 | 0.6978 ± 0.0024 | 0.658 ± 0.009 | 0.6251 ± 0.0016 | 0.5921 ± 0.0048 | 0.5814 ± 0.0045 | 0.5626 ± 0.0016
1 µM, coculture fibroblast: HPFa | 0.944 ± 0.0063 | 0.8922 ± 0.002 | 0.854 ± 0.0096 | 0.801 ± 0.014 | 0.7781 ± 0.0074 | 0.7452 ± 0.005 | 0.691 ± 0.013 | 0.664 ± 0.017 | 0.607 ± 0.021
1 µM, coculture fibroblast: HUF | 0.845 ± 0.023 | 0.733 ± 0.016 | 0.716 ± 0.014 | 0.61 ± 0.014 | 0.544 ± 0.024 | 0.529 ± 0.03 | 0.461 ± 0.022 | 0.449 ± 0.026 | 0.438 ± 0.026
1 µM, coculture fibroblast: Hs5 | 0.893 ± 0.046 | 0.78 ± 0.044 | 0.721 ± 0.041 | 0.675 ± 0.026 | 0.627 ± 0.014 | 0.578 ± 0.012 | 0.54637 ± 0.00015 | 0.5232 ± 0.0023 | 0.514 ± 0.012
1 µM, coculture fibroblast: Hs27A | 0.875 ± 0.013 | 0.813 ± 0.0086 | 0.7978 ± 0.0039 | 0.778 ± 0.0084 | 0.745 ± 0.015 | 0.695 ± 0.022 | 0.699 ± 0.015 | 0.686 ± 0.027 | 0.634 ± 0.029
1 µM, coculture fibroblast: Hs343T | 0.89201 ± 0.00029 | 0.757 ± 0.0053 | 0.689 ± 0.018 | 0.65 ± 0.024 | 0.587 ± 0.028 | 0.54 ± 0.03 | 0.488 ± 0.044 | 0.461 ± 0.04 | 0.424 ± 0.036
1 µM, coculture fibroblast: WS1 | 0.714 ± 0.025 | 0.609 ± 0.01 | 0.588 ± 0.016 | 0.519 ± 0.008 | 0.478 ± 0.017 | 0.458 ± 0.024 | 0.423 ± 0.025 | 0.432 ± 0.028 | 0.427 ± 0.034
